Data from publication doi:10.1101/2025.10.06.680677.
Like-named read-outs stand apart in the source and are kept apart here. These are yes or no findings as the source states them, for the method shown. Some binding calls cover weakened binding; strength is not graded here. Values belong to the molecule of their own block, whether it stands above or below them.

Protein sequences, listed by entry. Tags and fused reporters are not part of them. Residues count along the entry.
UniProt Q43125, residues 1-509: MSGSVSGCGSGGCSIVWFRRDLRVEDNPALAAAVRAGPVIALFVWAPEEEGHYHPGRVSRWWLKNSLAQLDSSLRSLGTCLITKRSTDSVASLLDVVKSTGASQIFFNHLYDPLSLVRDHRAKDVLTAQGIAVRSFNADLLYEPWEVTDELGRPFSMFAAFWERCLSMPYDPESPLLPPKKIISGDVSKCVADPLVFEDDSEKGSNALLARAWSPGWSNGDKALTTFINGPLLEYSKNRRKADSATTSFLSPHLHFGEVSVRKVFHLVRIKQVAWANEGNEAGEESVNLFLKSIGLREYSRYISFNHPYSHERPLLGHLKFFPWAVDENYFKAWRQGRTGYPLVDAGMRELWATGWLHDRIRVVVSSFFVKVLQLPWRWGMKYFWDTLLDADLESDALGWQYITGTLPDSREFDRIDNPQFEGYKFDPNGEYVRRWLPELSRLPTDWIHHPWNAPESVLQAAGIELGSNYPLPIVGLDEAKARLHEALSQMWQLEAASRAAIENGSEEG

Tests used:
Experiment in all cases: native MS
[1] = biological target: Arabidopsis thaliana CRY1 PHR domain (residues 1-509) (Arabidopsis thaliana) (UniProt Q43125)
[2] = biological target: Arabidopsis thaliana CRY1 PHR domain (residues 1-509) (Arabidopsis thaliana) (UniProt Q43125); remark: listed apart in the source
[3] = biological target: Arabidopsis thaliana CRY1 PHR domain (residues 1-509) (Arabidopsis thaliana) (UniProt Q43125); remark: listed apart in the source
[4] = biological target: Arabidopsis thaliana CRY1 PHR domain (residues 1-509) (Arabidopsis thaliana) (UniProt Q43125); remark: listed apart in the source
[5] = biological target: Arabidopsis thaliana CRY1 PHR domain (residues 1-509) (Arabidopsis thaliana) (UniProt Q43125); remark: listed apart in the source

- binding [1]: binds weakly
- binding [2]: no binding (condition: in darkness)
- binding [3]: binds weakly
Molecule: Arabidopsis thaliana CRY1 PHR domain (residues 1-509) (from UniProt Q43125 1-509) (domain or fragment)

- binding [4]: binds
- binding [5]: binds
B1: Blue-light Inhibitor of Cryptochromes 1 (BIC1) triple mutant C99A, C105A, C136A (protein, UniProt Q9LXJ1 1-140)
chain: MMNIDDTTSPMAHPIGPSQPPSDQTKQDPPSLPQEAASSVSADKKDLALLEEKPKQSQEEDRVDTGRERLKKHRREIAGRVWIPEIWGQEELLKDWIDASTFDTALVPAGISSARTALVEEARRAASASGGLHNRALILR
